According to paper PMC3689047:

Target: GST-eIF3f aa106-361 (human)
Experiment: pull-down; GST pull-down of recombinant His6-hMSH4 with GST-eIF3f fusion proteins on Glutathione-Sepharose 4B beads

binding: binds weakly
B1: recombinant His6-hMSH4 (protein, UniProt O15457 1-936)
chain: MLRPEISSTSPSAPAVSPSSGETRSPQGPRYNFGLQETPQSRPSVQVVSASTCPGTSGAAGDRSSSSSSLPCPAPNSRPAQGSYFGNKRAYAENTVASNFTFGASSSSARDTNYPQTLKTPLSTGNPQRSGYKSWTPQVGYSASSSSAISAHSPSVIVAVVEGRGLARGEIGMASIDLKNPQIILSQFADNTTYAKVITKLKILSPLEIIMSNTACAVGNSTKLFTLITENFKNVNFTTIQRKYFNETKGLEYIEQLCIAEFSTVLMEVQSKYYCLAAVAALLKYVEFIQNSVYAPKSLKICFQGSEQTAMIDSSSAQNLELLINNQDYRNNHTLFGVLNYTKTPGGSRRLRSNILEPLVDIETINMRLDCVQELLQDEELFFGLQSVISRFLDTEQLLSVLVQIPKQDTVNAAESKITNLIYLKHTLELVDPLKIAMKNCNTPLLRAYYGSLEDKRFGIILEKIKTVINDDARYMKGCLNMRTQKCYAVRSNINEFLDIARRTYTEIVDDIAGMISQLGEKYSLPLRTSFSSARGFFIQMTTDCIALPSDQLPSEFIKISKVKNSYSFTSADLIKMNERCQESLREIYHMTYMIVCKLLSEIYEHIHCLYKLSDTVSMLDMLLSFAHACTLSDYVRPEFTDTLAIKQGWHPILEKISAEKPIANNTYVTEGSNFLIITGPNMSGKSTYLKQIALCQIMAQIGSYVPAEYSSFRIAKQIFTRISTDDDIETNSSTFMKEMKEIAYILHNANDKSLILIDELGRGTNTEEGIGICYAVCEYLLSLKAFTLFATHFLELCHIDALYPNVENMHFEVQHVKNTSRNKEAILYTYKLSKGLTEEKNYGLKAAEVSSLPPSIVLDAKEITTQITRQILQNQRSTPEMERQRAVYHLATRLVQTARNSQLDPDSLRIYLSNLKKKYKEDFPRTEQVPEKTEE

These are yes or no findings as the source states them, for the method shown. Binding seen in cells or lysates may run through a third protein. Binding calls can cover weak binding; strength is not graded here. Tags and fused reporters may be left off the sequences shown.
